The source of these data is PubChem BioAssay AID330 (DTP/NCI, 2004).

The test system of the assay is P388 leukemia ip, CD2F1 mice, survival T/C. Briefly: NCI In Vivo Anticancer Drug Screen. Data for tumor model P388 Leukemia (intraperitoneal) in CD2F1 (CDF1) mice. The note with it: T/C endpoint: median survival time, higher T/C = longer survival.
[1] abbreviates: dose: 50.0 mg/kg/injection, schedule: Q01DX005 (ip), vehicle: saline with Tween-80.
The mark [2] stands for this setting: dose: 100.0 mg/kg/injection, schedule: Q01DX005 (ip), vehicle: saline with Tween-80.
[3] abbreviates: dose: 200.0 mg/kg/injection, schedule: Q01DX005 (ip), vehicle: saline with Tween-80.

The list is a part of this screen's results and no random one: it is rich in T/C values a quarter to a half above the control, in often repeated tests (any T/C) and in doses without a T/C. Other doses and runs of a compound stand elsewhere. T/C gives the treated animals as a percentage of the vehicle group. Some entries give survivors of the animals treated and no T/C: the source files T/C as zero there, which appears to mark a toxic dose or a test without result, not a measured value. Some survivor counts are full or nearly so, which does not show that the dose was tolerated: survival well below the control is almost never listed, so the zero probably covers shortened survival too. Survivors were counted at the toxicity check, usually on the fifth day, unless a day is given; later deaths do not show. Schedule codes are those of the source, taken here to give the interval after Q, in days (D) or hours (H), and the number of doses after X. Some entries hold several experiments; the results are listed from low to high. Where survival is the endpoint, this PubChem deposit counts one and a half times the control or more as active, and values a quarter to a half above the control carry no call in these data; other NCI protocols may use other cut-offs. Some T/C values are followed by the survivors on the day toxicity was checked, most often the fifth; without a count, all were alive then.

As to `CC[n+]1ccc(Nc2ccc(/C=C/c3ccc4cc(Nc5cc[n+](CC)cc5)ccc4[n+]3CC)cc2)cc1`, the T/C reads like this: (dose: 5.0 mg/kg/injection, schedule: Q04DX003 (ip), vehicle: saline sonified) 127 % of control; (dose: 5.0 mg/kg/injection, schedule: Q04DX003 (ip), vehicle: saline with Tween-80) 140 % of control; (dose: 7.5 mg/kg/injection, schedule: Q04DX003 (ip), vehicle: saline sonified) 127 % of control; (dose: 10.0 mg/kg/injection, schedule: Q04DX003 (ip), vehicle: saline with Tween-80) 131 % of control. The survivor count (dose: 20.0 mg/kg/injection, schedule: Q04DX003 (ip), vehicle: saline with Tween-80) was 2 of 6; the survivor count (dose: 50.0 mg/kg/injection, schedule: Q04DX003 (ip), vehicle: saline with Tween-80) is 0 of 6; the survivor count (dose: 100.0 mg/kg/injection, schedule: Q04DX003 (ip), vehicle: saline with Tween-80) is 0 of 6; the survivor count (dose: 200.0 mg/kg/injection, schedule: Q04DX003 (ip), vehicle: saline with Tween-80) was 0 of 6.

As to `c1ccc2c(c1)ccc1c2c[n+](CCCCCCCC[n+]2cc3c4ccccc4ccc3c3ccccc32)c2ccccc12`, the T/C (dose: 0.39 mg/kg/injection, schedule: Q01DX009 (ip), vehicle: distilled water + Tween-80) was 149 % of control.

With `COc1cc(NCc2ccc3nc(N)nc(N)c3c2C)cc(OC)c1OC` (tested in a mixture with another compound), the T/C reads like this: (dose: 2.5 mg/kg/injection, schedule: Q03HX024 (ip), vehicle: water) 144 % of control; (dose: 6.25 mg/kg/injection, schedule: Q03HX008 (sc), vehicle: water) 127 % of control; (dose: 6.9 mg/kg/injection, schedule: Q01DX009 (ip), vehicle: water) 143 % of control; (dose: 7.8 mg/kg/injection, schedule: Q03HX008 (ip), vehicle: water) 137 % of control; (dose: 12.5 mg/kg/injection, schedule: Q01DX005 (ip), vehicle: water, evaluated on day 30) 137 % of control [5 of 6 alive]; (dose: 12.5 mg/kg/injection, schedule: Q01DX005 (ip), vehicle: water, evaluated on day 60) 140 % of control. Also, the T/C (dose: 12.5 mg/kg/injection, schedule: Q01DX005 (iv), vehicle: water) was 131 % of control; the T/C (dose: 12.5 mg/kg/injection, schedule: Q03HX008 (sc), vehicle: water) is 127 % of control; the T/C (dose: 15.6 mg/kg/injection, schedule: Q03HX008 (ip), vehicle: water) is 144 % of control; the T/C (dose: 20.8 mg/kg/injection, schedule: Q04DX003 (ip), vehicle: water) is 131 % of control; the T/C (dose: 25.0 mg/kg/injection, schedule: Q01DX005 (iv), vehicle: water) is 143 % of control; the T/C (dose: 25.0 mg/kg/injection, schedule: Q03HX008 (sc), vehicle: water) was 134 % of control. Moreover, the T/C (dose: 31.2 mg/kg/injection, schedule: Q03HX008 (ip), vehicle: water) was 133 % of control [8 of 10 alive]; the T/C (dose: 41.6 mg/kg/injection, schedule: Q04DX003 (ip), vehicle: water) is 128 % of control; the T/C (dose: 50.0 mg/kg/injection, schedule: Q01DX005 (sc), vehicle: water) is 131 % of control; the T/C (dose: 50.0 mg/kg/injection, schedule: Q03HX008 (sc), vehicle: water) was 131 and 147 % of control; the T/C (dose: 83.3 mg/kg/injection, schedule: Q04DX003 (ip), vehicle: water) is 138 % of control. Further, the survivor count reads like this: (dose: 62.0 mg/kg/injection, schedule: Q03HX008 (ip), vehicle: water) 5 of 10; (dose: 70.0 mg/kg/injection, schedule: Q01DX001 (iv), vehicle: water) 2 of 10; (dose: 85.0 mg/kg/injection, schedule: Q01DX001 (iv), vehicle: water) 0 of 10; (dose: 100.0 mg/kg/injection, schedule: Q01DX001 (iv), vehicle: water) 0 of 10; (dose: 100.0 mg/kg/injection, schedule: Q01DX005 (iv), vehicle: water) 0 of 10; (dose: 111.1 mg/kg/injection, schedule: Q01DX009 (ip), vehicle: water) 5 of 10. Besides, the survivor count (dose: 120.0 mg/kg/injection, schedule: Q01DX001 (iv), vehicle: water) is 1 of 10; the survivor count (dose: 125.0 mg/kg/injection, schedule: Q01DX001 (iv), vehicle: water) was 0 of 10; the survivor count (dose: 125.0 mg/kg/injection, schedule: Q03HX008 (ip), vehicle: water) is listed as 0 of 10; the survivor count (dose: 166.6 mg/kg/injection, schedule: Q04DX003 (ip), vehicle: water) is 0 of 10; the survivor count (dose: 200.0 mg/kg/injection, schedule: Q01DX005 (ip), vehicle: water) is 0 of 10 and 3 of 6; the survivor count (dose: 200.0 mg/kg/injection, schedule: Q01DX005 (iv), vehicle: water) was 0 of 10. Moreover, the survivor count is, setting by setting: (dose: 222.2 mg/kg/injection, schedule: Q01DX009 (oral), vehicle: water) 9 of 10; (dose: 250.0 mg/kg/injection, schedule: Q01DX001 (ip), vehicle: water) 0 of 10; (dose: 250.0 mg/kg/injection, schedule: Q01DX001 (iv), vehicle: water) 0 of 10; (dose: 333.3 mg/kg/injection, schedule: Q04DX003 (ip), vehicle: water) 0 of 10; (dose: 400.0 mg/kg/injection, schedule: Q01DX005 (ip), vehicle: water) 0 of 6; (dose: 444.4 mg/kg/injection, schedule: Q01DX009 (oral), vehicle: water) 9 of 10. Besides, the survivor count reads like this: (dose: 500.0 mg/kg/injection, schedule: Q01DX001 (ip), vehicle: water) 0 of 10; (dose: 500.0 mg/kg/injection, schedule: Q01DX001 (iv), vehicle: water) 0 of 10; (dose: 1000.0 mg/kg/injection, schedule: Q01DX001 (ip), vehicle: water) 0 of 10; (dose: 1000.0 mg/kg/injection, schedule: Q01DX001 (iv), vehicle: water) 0 of 10.

`C=CN=NNc1ccc(C#N)cc1`: the survivor count (dose: 400.0 mg/kg/injection, schedule: Q04DX003 (ip), vehicle: saline with Tween-80) is 0 of 6.

On to `CC1=NCc2c(nnn2C)N1`, for which, for the setting “dose: 400.0 mg/kg/injection, schedule: Q01DX001 (ip), vehicle: Klucel (hydroxypropylcellulose) (HPC)”, the survivor count is listed as 2 of 6.

As to `O=C1NC(=O)C2NC(O)=C(O)NC2N1` (centres undefined), the survivor count (dose: 50.0 mg/kg/injection, schedule: Q01DX001 (ip), vehicle: saline with Tween-80) is 2 of 6; the survivor count (dose: 100.0 mg/kg/injection, schedule: Q01DX001 (ip), vehicle: saline with Tween-80) is given as 1 of 6; the survivor count (dose: 200.0 mg/kg/injection, schedule: Q01DX001 (ip), vehicle: saline with Tween-80) is 2 of 6; the survivor count (dose: 400.0 mg/kg/injection, schedule: Q01DX001 (ip), vehicle: saline with Tween-80) is given as 0 of 6.

For `C/C(=N\NC(=S)N1CCN(c2ccccc2)CC1)c1nccs1`, the T/C (dose: 12.5 mg/kg/injection, schedule: Q01DX005 (ip), vehicle: saline with Tween-80) was 130 % of control and the T/C under setting [1] was 136 % of control. For the same compound, the survivor count is, setting by setting: (dose: 25.0 mg/kg/injection, schedule: Q01DX005 (ip), vehicle: saline with Tween-80) 6 of 6; under setting [1], 2 of 6; under setting [2], 0 of 6 and 3 of 6; under setting [3], 1 of 6.

Regarding `COc1cc(/C=N/N2CN(C(C)C(=O)O)B(NCCC(C)C)N=C2N)cc(OC)c1` (centres undefined), the survivor count (dose: 240.0 mg/kg/injection, schedule: Q01DX005 (ip), vehicle: saline with Tween-80) was 0 of 6.

Take `CCCC(C)N(CCCNc1cc(OC)cc2cccnc12)CC(C)C` (centres undefined): the survivor count runs as follows: under setting [2], 0 of 5; under setting [3], 0 of 5.

For `CN(C)CCN(C)C(=N)N`, the survivor count (dose: 50.0 mg/kg/injection, schedule: Q01DX009 (ip), vehicle: saline) is 6 of 6.
